These are yes or no findings as the source states them, for the method shown. For some assays here: Binding can be weak; no strength is given. For some assays here: Tags and fused reporters may be left off the sequences shown. For some assays here: In cells and extracts the contact can be indirect.
How the values were obtained:
[1] = biological target: strep-Keap1 (mouse, wild type, baculovirus) (mouse) (UniProt Q9Z2X8); test: pull-down; Strep-Tactin beads (strep-Keap1 as bait) on extracts of baculovirus co-infected Sf9 cells, 1 hr at 4 °C, washes with 250 mM KCl buffer pH 7.8, Western blot
[2] = biological target: T1, FLAG-MCM3 (mouse MCM3 expressed in CHO-EBNALT85 cells) (mouse) (UniProt P25206); test: co-IP; anti-FLAG M2 beads on whole cell, nuclear and cytoplasmic extracts of FLAG-MCM3 expressing CHOEBNALT85 cells, 150 mM KCl, Western blot
T1 sequence: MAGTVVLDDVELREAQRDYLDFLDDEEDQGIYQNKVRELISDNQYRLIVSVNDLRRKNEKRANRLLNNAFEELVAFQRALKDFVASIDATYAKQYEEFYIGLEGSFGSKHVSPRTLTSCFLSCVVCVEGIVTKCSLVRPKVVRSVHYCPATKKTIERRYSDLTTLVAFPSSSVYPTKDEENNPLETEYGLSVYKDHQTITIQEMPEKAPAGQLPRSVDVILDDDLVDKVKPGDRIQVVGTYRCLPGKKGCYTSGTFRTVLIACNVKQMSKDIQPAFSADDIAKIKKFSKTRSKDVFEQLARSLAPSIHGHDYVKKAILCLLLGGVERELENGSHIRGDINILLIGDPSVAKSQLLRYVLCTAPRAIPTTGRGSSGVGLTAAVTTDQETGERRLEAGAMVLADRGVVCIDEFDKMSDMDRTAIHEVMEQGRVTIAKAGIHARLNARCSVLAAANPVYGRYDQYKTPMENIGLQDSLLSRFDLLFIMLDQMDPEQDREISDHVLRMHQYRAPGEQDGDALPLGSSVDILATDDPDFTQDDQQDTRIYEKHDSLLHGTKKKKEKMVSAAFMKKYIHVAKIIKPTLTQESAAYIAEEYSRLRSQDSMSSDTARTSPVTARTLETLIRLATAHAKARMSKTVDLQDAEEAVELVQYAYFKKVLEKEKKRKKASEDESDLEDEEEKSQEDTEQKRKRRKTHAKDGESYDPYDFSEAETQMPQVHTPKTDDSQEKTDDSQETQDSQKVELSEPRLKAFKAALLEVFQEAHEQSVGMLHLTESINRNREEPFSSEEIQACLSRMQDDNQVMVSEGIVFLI

By UniProt entry, the sequences of proteins in these tests, tags left out.
UniProt Q9Z2X8: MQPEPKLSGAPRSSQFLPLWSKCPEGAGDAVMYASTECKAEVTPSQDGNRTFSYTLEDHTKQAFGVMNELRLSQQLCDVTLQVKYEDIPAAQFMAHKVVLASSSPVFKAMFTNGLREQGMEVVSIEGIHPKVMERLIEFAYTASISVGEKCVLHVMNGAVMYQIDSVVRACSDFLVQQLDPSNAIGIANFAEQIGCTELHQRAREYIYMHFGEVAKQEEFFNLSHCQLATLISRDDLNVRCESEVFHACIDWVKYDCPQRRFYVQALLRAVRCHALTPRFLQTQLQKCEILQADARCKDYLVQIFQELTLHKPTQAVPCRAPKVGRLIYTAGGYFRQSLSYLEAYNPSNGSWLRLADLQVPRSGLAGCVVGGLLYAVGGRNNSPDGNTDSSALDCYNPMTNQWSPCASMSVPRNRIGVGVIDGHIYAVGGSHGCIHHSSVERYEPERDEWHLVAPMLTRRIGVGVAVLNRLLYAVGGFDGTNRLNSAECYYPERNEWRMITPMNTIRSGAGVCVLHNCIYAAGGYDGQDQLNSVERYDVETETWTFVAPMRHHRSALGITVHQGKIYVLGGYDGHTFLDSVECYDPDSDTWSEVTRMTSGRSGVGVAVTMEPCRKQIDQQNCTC

[3] = biological target: T1, FLAG-MCM3 (mouse MCM3 expressed in CHO-EBNALT85 cells) (mouse); test: SEC; Superdex 200 10/300 GL of the FLAG-MCM3 immunoprecipitates from CHO extracts, C-150 buffer with 10% glycerol; gels and Western blots of fractions
[4] = biological target: FLAG-MCM3 ETGE > EAGE mutant (mouse, baculovirus) (mouse) (UniProt P25206); test: co-IP; anti-FLAG beads (FLAG-MCM3 as bait; called FLAG-MCM3 pulldown) on extracts of baculovirus co-infected Sf9 cells, 1 hr at 4 °C, washes with 250 mM KCl buffer pH 7.8, Western blot

Q: “FLAG-MCM3 ETGE > EAGE mutant (mouse, baculovirus) (from UniProt P25206)” was tested. Which binding [1] did it give?
A: no binding

Q: For “Keap1 (endogenous, CHO cells) (Chinese hamster (endogenous in CHO))”, which binding [2] is on record?
A: binds

Q: And the binding [3]?
A: binds

Q: How did the binding [3] turn out when “MCM-BP (endogenous, CHO cells) (Chinese hamster (endogenous in CHO))” was run?
A: binds

B1: HA-MCM-BP (mouse, baculovirus) (natural protein, UniProt Q8R3C0 1-642, looked up)
chain: MPCGEDWLSHPLGIVQGFFAQNGVNPDWEKKVIEYFKEKLKENNAPKWVPSLNEVPLHYLKPNSFVKFRCMIQDMFDPEFYMGIYETVNQNTKARVLHFGKYRDVAECGPQQELDLSSPRSTTSERQTFYCVPVPGESSWVKEAYVNANQARVSPSTSYTPSRHKRSYEDDEDMDLQPSKQKEQHPGSRQAGGLGGLHWCGEPKRLETEASSGQQLNTLNLSSPFDLNFPLPGEKGPACLVKVYEDWDCFKVNDVLELYGVLSVDPVLSVLNSEERDASALLDPMECTDMAEEQRVHSPPASLVPRIHVILAQKLQHINPLLPTCLNKEESRSCQFVSNFMSELSPVRAELLGFLTHALLGDSLAAEYLILHLISTVYTRRDVLPLGKFTVNLSGCPQNSTFTEHLYRIIQHLVPASFRLQMTIENMNQLKLIPHKDYTANRLVSGLLQLPNNTSLVIDETLLEQGQLDTPGVHNVTALSNLITWQKVDYDFSYHQMEFPCNINVLITSEGRSLLPADCQIHLQPQLIPPNMEEYMNGLLSAVLPSVLNKFRIYLTLLRFLDYNLSDDITKAVEDDFVEMRKDDPQSITADDLHQLLVVARFLSLSVGQTTLSRERWLRAKQLELSRKARLQQQKSVNGNEL
notes: MCM-BP, mouse; cDNA cloned into pFastBac1; source: Sf9, baculovirus infected, in extract
Q: B1 was tested. Which binding [4] did it give?
A: binds

— PMC6092318, “Keap1–MCM3 interaction is a potential coordinator of molecular machineries of antioxidant response and genomic DNA replication in metazoa” (Scientific Reports, 2018)
